According to the supplement of paper PMC7666118:
The other results are listed elsewhere or left out.

The chains behind the UniProt entries cited, without tags or fusion partners. Where a name states a change or a piece, a line headed by the entry shows the natural chain unless it says otherwise.
UniProt P21127: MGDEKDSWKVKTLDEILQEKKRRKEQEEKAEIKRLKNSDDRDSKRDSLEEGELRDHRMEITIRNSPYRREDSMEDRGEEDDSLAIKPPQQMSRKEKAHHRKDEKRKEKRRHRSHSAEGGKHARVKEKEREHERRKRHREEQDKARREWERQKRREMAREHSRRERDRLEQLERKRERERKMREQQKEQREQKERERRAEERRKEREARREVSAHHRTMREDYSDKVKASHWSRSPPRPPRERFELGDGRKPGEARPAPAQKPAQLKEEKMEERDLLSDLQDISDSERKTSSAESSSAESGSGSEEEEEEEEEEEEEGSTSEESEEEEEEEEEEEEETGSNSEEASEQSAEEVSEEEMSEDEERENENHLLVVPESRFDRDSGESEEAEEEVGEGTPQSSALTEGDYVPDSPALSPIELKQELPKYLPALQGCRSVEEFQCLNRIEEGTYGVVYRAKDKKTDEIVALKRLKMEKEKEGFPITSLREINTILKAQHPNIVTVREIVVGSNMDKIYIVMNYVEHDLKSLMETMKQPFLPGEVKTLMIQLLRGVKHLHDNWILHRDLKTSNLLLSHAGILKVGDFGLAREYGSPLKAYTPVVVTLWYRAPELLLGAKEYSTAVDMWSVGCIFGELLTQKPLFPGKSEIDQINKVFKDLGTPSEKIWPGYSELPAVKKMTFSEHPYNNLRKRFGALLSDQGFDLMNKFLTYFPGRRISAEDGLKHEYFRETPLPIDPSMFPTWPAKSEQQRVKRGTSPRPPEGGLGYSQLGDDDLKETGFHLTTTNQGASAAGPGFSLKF
UniProt Q5HYK3: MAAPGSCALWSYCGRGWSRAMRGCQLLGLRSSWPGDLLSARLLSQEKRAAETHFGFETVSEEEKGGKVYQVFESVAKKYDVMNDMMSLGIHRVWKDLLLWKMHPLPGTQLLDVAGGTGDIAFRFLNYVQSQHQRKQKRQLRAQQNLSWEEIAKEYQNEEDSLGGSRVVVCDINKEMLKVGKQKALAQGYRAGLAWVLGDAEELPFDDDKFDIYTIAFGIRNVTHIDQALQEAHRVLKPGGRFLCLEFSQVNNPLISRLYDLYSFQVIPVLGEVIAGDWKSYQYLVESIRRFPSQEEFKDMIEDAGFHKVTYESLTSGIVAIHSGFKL
UniProt Q9BRQ6: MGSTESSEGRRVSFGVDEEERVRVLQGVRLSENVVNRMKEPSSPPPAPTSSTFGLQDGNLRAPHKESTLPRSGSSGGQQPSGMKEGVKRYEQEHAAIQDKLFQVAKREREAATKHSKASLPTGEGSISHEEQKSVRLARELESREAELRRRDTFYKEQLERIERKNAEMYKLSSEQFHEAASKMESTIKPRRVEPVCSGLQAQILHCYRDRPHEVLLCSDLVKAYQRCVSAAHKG
UniProt O75629: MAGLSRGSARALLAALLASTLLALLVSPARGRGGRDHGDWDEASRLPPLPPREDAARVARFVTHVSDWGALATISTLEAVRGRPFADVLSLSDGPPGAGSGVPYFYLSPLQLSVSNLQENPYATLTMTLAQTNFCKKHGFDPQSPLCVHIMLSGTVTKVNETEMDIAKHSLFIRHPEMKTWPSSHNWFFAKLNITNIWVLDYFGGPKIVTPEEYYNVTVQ
UniProt Q92905, whole entry, looked up: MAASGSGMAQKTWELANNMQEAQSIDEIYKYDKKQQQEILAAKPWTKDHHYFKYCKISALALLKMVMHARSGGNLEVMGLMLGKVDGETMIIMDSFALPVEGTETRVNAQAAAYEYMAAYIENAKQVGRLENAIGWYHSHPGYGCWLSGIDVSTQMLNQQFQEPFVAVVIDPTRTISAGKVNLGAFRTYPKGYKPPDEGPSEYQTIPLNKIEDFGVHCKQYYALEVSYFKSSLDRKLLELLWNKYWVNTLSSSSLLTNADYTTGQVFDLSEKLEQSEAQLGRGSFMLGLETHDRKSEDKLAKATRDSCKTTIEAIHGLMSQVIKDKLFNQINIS
UniProt P53618: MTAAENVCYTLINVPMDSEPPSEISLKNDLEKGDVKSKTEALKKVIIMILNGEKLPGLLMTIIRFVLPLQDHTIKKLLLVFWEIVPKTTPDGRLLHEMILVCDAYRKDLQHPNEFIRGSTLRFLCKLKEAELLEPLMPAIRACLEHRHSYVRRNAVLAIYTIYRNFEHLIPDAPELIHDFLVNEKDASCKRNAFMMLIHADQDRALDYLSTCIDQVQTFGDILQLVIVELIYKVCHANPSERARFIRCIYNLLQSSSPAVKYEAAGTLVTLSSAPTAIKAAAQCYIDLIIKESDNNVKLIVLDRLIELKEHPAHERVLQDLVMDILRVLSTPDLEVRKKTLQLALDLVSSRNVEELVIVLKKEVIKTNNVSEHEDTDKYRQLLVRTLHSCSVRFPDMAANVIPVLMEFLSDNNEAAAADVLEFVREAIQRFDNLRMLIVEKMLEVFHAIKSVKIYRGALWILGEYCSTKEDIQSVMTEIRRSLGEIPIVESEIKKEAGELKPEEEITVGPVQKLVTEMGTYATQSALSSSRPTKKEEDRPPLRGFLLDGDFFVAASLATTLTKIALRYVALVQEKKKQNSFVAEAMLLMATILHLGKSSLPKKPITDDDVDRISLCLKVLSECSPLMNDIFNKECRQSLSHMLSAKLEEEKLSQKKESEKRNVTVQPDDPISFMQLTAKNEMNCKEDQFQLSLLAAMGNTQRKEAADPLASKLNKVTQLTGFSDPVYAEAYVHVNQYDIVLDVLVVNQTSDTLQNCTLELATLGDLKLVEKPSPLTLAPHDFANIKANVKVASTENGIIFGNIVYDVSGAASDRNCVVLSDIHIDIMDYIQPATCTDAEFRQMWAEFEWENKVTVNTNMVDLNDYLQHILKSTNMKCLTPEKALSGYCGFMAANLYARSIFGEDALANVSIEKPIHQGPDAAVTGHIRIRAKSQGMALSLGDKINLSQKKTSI
UniProt O14646: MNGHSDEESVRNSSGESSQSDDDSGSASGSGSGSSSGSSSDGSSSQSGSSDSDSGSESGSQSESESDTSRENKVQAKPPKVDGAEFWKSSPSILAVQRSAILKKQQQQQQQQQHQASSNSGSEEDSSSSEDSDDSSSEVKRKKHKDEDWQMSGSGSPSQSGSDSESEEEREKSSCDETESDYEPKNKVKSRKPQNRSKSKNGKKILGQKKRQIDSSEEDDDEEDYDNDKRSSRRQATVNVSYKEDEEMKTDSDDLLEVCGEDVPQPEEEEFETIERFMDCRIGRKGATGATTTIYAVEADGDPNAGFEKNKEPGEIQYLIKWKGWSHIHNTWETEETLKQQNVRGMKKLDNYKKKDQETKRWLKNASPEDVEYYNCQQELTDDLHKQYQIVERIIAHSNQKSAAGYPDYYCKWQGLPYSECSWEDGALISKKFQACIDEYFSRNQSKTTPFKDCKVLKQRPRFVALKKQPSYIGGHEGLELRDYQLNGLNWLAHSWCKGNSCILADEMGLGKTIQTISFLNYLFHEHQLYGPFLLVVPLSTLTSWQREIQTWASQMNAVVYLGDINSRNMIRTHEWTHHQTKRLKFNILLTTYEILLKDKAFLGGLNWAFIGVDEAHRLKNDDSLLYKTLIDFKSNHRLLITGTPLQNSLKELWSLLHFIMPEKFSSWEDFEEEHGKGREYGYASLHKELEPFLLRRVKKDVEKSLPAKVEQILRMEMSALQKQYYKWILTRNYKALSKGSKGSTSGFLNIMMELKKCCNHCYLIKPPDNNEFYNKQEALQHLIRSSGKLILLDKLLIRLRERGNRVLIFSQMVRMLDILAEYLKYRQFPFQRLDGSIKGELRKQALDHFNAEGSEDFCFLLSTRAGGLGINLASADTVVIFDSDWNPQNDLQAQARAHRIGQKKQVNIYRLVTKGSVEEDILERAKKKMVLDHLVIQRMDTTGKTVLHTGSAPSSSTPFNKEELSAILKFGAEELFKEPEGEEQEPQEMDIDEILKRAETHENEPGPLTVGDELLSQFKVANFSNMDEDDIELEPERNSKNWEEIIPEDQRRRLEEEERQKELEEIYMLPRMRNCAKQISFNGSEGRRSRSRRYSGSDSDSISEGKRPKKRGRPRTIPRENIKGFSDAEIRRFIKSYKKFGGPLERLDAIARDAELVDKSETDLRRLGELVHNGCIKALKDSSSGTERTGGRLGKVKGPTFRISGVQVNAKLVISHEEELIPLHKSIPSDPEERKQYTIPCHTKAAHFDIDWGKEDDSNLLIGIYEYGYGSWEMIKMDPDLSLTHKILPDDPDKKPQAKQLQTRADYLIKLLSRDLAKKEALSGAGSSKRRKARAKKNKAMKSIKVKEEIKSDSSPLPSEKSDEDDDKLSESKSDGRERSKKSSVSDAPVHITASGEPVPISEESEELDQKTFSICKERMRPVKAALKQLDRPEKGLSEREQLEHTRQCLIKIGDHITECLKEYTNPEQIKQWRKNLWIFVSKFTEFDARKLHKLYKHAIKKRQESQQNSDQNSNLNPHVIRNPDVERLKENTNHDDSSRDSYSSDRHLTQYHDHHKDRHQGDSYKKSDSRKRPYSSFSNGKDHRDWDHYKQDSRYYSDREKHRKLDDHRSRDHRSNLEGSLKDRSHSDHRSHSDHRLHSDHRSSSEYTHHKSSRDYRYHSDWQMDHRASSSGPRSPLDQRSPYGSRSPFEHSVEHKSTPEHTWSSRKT
UniProt Q9Y5P4: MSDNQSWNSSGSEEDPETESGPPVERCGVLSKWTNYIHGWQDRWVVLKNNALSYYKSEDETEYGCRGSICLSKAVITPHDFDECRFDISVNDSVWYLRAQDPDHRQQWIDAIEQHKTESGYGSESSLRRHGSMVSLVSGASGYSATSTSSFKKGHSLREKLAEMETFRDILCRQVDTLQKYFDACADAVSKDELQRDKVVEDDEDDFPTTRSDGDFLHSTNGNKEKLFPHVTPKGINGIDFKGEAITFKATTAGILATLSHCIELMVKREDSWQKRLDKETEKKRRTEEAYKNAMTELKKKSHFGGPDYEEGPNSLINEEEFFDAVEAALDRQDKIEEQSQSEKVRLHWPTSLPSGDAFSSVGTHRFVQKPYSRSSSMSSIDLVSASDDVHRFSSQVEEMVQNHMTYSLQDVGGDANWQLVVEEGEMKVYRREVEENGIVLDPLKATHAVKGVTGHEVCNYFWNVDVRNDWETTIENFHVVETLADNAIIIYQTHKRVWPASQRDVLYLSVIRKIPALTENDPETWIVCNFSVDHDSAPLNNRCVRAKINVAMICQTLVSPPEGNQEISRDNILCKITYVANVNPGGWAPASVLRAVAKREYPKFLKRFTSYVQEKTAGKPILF
UniProt Q53ET0: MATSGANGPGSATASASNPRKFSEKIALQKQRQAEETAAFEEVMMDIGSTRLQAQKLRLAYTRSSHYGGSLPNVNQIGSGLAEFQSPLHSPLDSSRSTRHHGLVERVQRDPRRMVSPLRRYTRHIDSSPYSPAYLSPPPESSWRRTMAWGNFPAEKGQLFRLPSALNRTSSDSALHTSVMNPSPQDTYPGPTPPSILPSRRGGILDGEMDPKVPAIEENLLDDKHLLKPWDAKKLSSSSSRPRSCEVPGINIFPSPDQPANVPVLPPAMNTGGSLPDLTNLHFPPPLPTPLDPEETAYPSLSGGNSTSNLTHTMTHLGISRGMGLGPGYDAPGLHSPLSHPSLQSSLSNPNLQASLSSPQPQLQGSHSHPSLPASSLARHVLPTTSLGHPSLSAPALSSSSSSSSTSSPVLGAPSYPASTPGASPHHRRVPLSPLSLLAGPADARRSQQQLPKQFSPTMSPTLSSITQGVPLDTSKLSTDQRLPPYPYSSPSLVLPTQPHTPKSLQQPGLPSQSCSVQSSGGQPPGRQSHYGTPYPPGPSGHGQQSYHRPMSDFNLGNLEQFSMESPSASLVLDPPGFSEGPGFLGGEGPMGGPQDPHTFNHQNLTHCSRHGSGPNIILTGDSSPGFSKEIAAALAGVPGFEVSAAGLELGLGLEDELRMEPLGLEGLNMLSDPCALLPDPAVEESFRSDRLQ
UniProt Q6UUV9: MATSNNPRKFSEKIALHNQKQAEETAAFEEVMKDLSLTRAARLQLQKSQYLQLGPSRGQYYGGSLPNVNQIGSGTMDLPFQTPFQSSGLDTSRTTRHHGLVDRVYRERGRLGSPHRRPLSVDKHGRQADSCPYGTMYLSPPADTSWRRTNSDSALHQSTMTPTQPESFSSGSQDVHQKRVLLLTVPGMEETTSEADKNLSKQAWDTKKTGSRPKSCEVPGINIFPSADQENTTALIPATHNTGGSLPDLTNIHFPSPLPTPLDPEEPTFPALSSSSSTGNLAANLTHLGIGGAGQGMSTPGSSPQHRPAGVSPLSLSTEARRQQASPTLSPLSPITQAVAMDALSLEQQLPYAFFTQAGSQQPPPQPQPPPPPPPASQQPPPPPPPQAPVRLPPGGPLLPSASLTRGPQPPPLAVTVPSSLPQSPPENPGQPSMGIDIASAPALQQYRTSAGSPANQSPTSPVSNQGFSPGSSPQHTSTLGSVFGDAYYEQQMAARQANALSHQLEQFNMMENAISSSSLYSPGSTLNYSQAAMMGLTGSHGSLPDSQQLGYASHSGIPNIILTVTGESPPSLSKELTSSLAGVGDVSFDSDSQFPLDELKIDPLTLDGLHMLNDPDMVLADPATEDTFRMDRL

Compound: COc1ccc(Cn2ccc3cc(C)c(C(=O)NO)cc32)cc1
Experiment: dose-dependent thermal stabilisation call (2D-TPP, DLPTP, 10% FDR) (binary (1 = stabilised)); higher = stabilised by the compound
Conditions: system: HL-60 intact cells; concentration range 0.04-10 µM
Experimental: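 2D thermal proteome profiling in intact HL-60 cells treated with BRD-3811 (0, 0.04, 0.29, 2, 10 uM) for 90 min at 37 C, then heated 3 min at one of 12 temperatures (42-63.9 C). Soluble protein was quantified by TMT10 MS. The value is the DLPTP call of the paper: dose-dependent thermal stabilisation over all temperatures at 10% FDR (F-test of a dose-response against a flat model); one experiment, one call per tested protein.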

Row | Target | dose-dependent thermal stabilisation call
1 | CRYZ (UniProt Q08257) | inactive: 0
2 | CDK7 (UniProt P50613) | inactive: 0
3 | CNNM2 (UniProt Q9H8M5) | inactive: 0
4 | COG2 (UniProt Q14746) | inactive: 0
5 | CDT1 (UniProt Q9H211) | inactive: 0
6 | CORO1C (UniProt Q9ULV4) | inactive: 0
7 | CDC2L1 (UniProt P21127) | inactive: 0
8 | CDK4 (UniProt P11802) | inactive: 0
9 | COQ5 (UniProt Q5HYK3) | inactive: 0
10 | CKS1B (UniProt P61024) | inactive: 0
11 | CHCHD6 (UniProt Q9BRQ6) | inactive: 0
12 | CDK5RAP3 (UniProt Q96JB5) | inactive: 0
13 | CEBPA (UniProt P49715) | inactive: 0
14 | CHMP2B (UniProt Q9UQN3) | inactive: 0
15 | CLIP1 (UniProt P30622) | inactive: 0
16 | CDCA2 (UniProt Q69YH5) | inactive: 0
17 | CNBP (UniProt P62633) | inactive: 0
18 | CHSY1 (UniProt Q86X52) | inactive: 0

Looked up one by one from the list above (2):
Row | Target | dose-dependent thermal stabilisation call
6 | CORO1C (UniProt Q9ULV4) | inactive: 0
3 | CNNM2 (UniProt Q9H8M5) | inactive: 0

More entries follow.

Row | Target | dose-dependent thermal stabilisation call
19 | CREG1 (UniProt O75629) | inactive: 0
20 | COPS5 (UniProt Q92905) | inactive: 0
21 | CPOX (UniProt P36551) | active: 1
22 | COPA (UniProt P53621) | inactive: 0
23 | CHD4 (UniProt Q14839) | inactive: 0
24 | COPB1 (UniProt P53618) | inactive: 0
25 | CHD1 (UniProt O14646) | inactive: 0
26 | CEBPE (UniProt Q15744) | inactive: 0
27 | CMIP (UniProt Q8IY22) | inactive: 0
28 | CHMP5 (UniProt Q9NZZ3) | inactive: 0
29 | COL4A3BP (UniProt Q9Y5P4) | inactive: 0
30 | COX7A2L (UniProt O14548) | inactive: 0
31 | CDC42BPA (UniProt Q5VT25) | inactive: 0
32 | CRTC2 (UniProt Q53ET0) | inactive: 0
33 | CRTC1 (UniProt Q6UUV9) | inactive: 0
34 | CDC23 (UniProt Q9UJX2) | inactive: 0
35 | CNOT6L (UniProt Q96LI5) | inactive: 0
36 | CLPB (UniProt Q9H078) | inactive: 0
